# Measurements published in patent US20100196321A1, “COMPOUNDS” (GLAXOSMITHKLINE LLC, priority 2009, published 2010).
# pIC50: −log10 of the molar value. Some entries share one result that the patent states for a list of compounds. Some compounds share one range, which may span the group rather than tell each member.
# Target: HCV Genotype 1a NS3-4A Protease Domain (Hepatitis C virus genotype 1a, UniProt P27958, T1100M/T1173A)
# Assay: Hepatitis C NS3 Protease FRET Assay (QXL520)
# Type: biochemical
# Settings: 5-FAM/QXL520 substrate
row,SMILES,pIC50
1,"COc1ccc2c(O[C@@H]3C[C@H]4C(=O)N[C@]5(C(=O)NS(=O)(=O)C6CC6)C[C@H]5/C=C\CCCCC[C@H](NC(=O)N(C(C)C)C(C)C)C(=O)N4C3)cc(-c3nc(C4CC4)cs3)nc2c1C [Example 8, (2R,6S,13aS,14aR,16aS)-6-({[bis(1-methylethyl)amino]carbonyl}amino)-N-(cyclopropylsulfonyl)-2-{[2-(4-cyclopropyl-1,3-thiazol-2-yl)-8-methyl-7-(methyloxy)-4-quinolinyl]oxy}-5,16-dioxo-1,2,3,6,7,8,9,10,11,13a,14,15,16,16a-tetradecahydrocyclopropa[e]pyrrolo[1,2-a][1,4]diazacyclopentadecine-14a(5H)-carboxamide]",8.70 to 10.00
2,"C=C1CCN(C(=O)N[C@H]2CCCCC/C=C\[C@@H]3C[C@@]3(C(=O)NS(=O)(=O)C3CC3)NC(=O)[C@@H]3C[C@@H](Oc4cc(-c5nc(C6CC6)cs5)nc5c(Cl)c(OC)ccc45)CN3C2=O)CC1 [Example 27, (2R,6S,13aS,14aR,16aS,Z)-2-(8-chloro-2(4-cyclopropylthiazol-2-yl)-7-methoxyquinolin-4-yloxy)-N-(cyclopropylsulfonyl)-6-(4-methylenepiperidine-1-carboxamido)-5,16-dioxo-1,2,3,5,6,7,8,9,10,11,13a,14,14a,15,16,16a-hexadecahydrocyclopropa[e]pyrrolo[1,2-a][1,4]diazacyclopentadecine-14a-carboxamide]",8.70 to 10.00
3,"COCCN(C)C(=O)N[C@H]1CCCCC/C=C\[C@@H]2C[C@@]2(C(=O)NS(=O)(=O)C2CC2)NC(=O)[C@@H]2C[C@@H](Oc3cc(-c4nc(C5CC5)cs4)nc4c(Cl)c(OC)ccc34)CN2C1=O [Example 28, (2R,6S,13aS,14aR,16aS)-2-{[8-chloro-2-(4-cyclopropyl-1,3-thiazol-2-yl)-7-(methyloxy)-4-quinolinyl]oxy}-N-(cyclopropylsulfonyl)-6-[({methyl[2-(methyloxy)ethyl]amino}carbonyl)amino]-5,16-dioxo-1,2,3,6,7,8,9,10,11,13a,14,15,16,16a-tetradecahydrocyclopropa[e]pyrrolo[1,2-a][1,4]diazacyclopentadecine-14a(5H)-carboxamide]",8.70 to 10.00
4,"COc1ccc2c(O[C@@H]3C[C@H]4C(=O)N[C@]5(C(=O)NS(=O)(=O)C6CC6)C[C@H]5/C=C\CCCCC[C@H](NC(=O)N5CCCC5)C(=O)N4C3)cc(-c3nc(C4CC4)cs3)nc2c1C [Example 30, (2R,6S,13a-5,1-aR,16aS,Z)-N-(cyclopropylsulfonyl)-2-(2-(4-cyclopropylthiazol-2-yl)-7-methoxy-8-methylquinolin-4-yloxy)-5,16-dioxo-6-(pyrrolidine-1-carboxamido)-1,2,3,5,6,7,8,9,10,11,13a,14,14a,15,16,16a-hexadecahydrocyclopropa[e]pyrrolo[1,2-a][1,4]diazacyclopentadecine-14a-carboxamide]",8.70 to 10.00
5,"COc1ccc2c(O[C@@H]3C[C@H]4C(=O)N[C@]5(C(=O)NS(=O)(=O)C6CC6)C[C@H]5/C=C\CCCCC[C@H](NC(=O)N5CCCCC5)C(=O)N4C3)cc(-c3nc(C4CC4)cs3)nc2c1C [Example 31, (2R,6S,13aS,14aR,16aS,Z)-N-(cyclopropylsulfonyl)-2-(2-(4-cyclopropylthiazol-2-yl)-7-methoxy-8-methylquinolin-4-yloxy)-5,16-dioxo-6-(piperidine-1-carboxamido)-1,2,3,5,6,7,8,9,10,11,13a,14,14a,15,16,16a-hexadecahydrocyclopropa[e]pyrrolo[1,2-a][1,4]diazacyclopentadecine-14a-carboxamide]",8.70 to 10.00
6,"COc1ccc2c(O[C@@H]3C[C@H]4C(=O)N[C@]5(C(=O)NS(=O)(=O)C6CC6)C[C@H]5/C=C\CCCCC[C@H](NC(=O)N5CCC5)C(=O)N4C3)cc(-c3nc(C4CC4)cs3)nc2c1C [Example 32, (2R,65,13aS,14aR,16aS,Z)-6-(azetidine-1-carboxamido)-N-(cyclopropylsulfonyl)-2-(2-(4-cyclopropylthiazol-2-yl)-7-methoxy-8-methylquinolin-4-yloxy)-5,16-dioxo-1,2,3,5,6,7,8,9,10,11,13a,14,14a,15,16,16a-hexadecahydrocyclopropa[e]pyrrolo[1,2-a][1,4]diazacyclopentadecine-14a-carboxamide]",8.70 to 10.00
7,"COc1ccc2c(O[C@@H]3C[C@H]4C(=O)N[C@]5(C(=O)NS(=O)(=O)C6CC6)C[C@H]5/C=C\CCCCC[C@H](NC(=O)N5CC(F)(F)C5)C(=O)N4C3)cc(-c3nc(C4CC4)cs3)nc2c1C [Example 33, (2R,6S,13aS,14aR,16aS,Z)-N-(cyclopropylsulfonyl)-2-(2-(4-cyclopropylthiazol-2-yl)-7-methoxy-8-methylquinolin-4-yloxy)-6-(3,3-difluoroazetidine-1-carboxamido)-5,16-dioxo-1,2,3,5,6,7,8,9,10,11,13a,14,14a,15,16,16a-hexadecahydrocyclopropa[e]pyrrolo[1,2-a][1,4]diazacyclopentadecine-14a-carboxamide]",8.70 to 10.00
8,"COc1ccc2c(O[C@@H]3C[C@H]4C(=O)N[C@]5(C(=O)NS(=O)(=O)C6CC6)C[C@H]5/C=C\CCCCC[C@H](NC(=O)N5CCC(C)(C)C5)C(=O)N4C3)cc(-c3nc(C4CC4)cs3)nc2c1C [Example 34, (2R,6S,13a-5,1-aR,16aS,Z)-N-(cyclopropylsulfonyl)-2-(2-(4-cyclopropylthiazol-2-yl)-7-methoxy-8-methylquinolin-4-yloxy)-6-(3,3-dimethylpyrrolidine-1-carboxamido)-5,16-dioxo-1,2,3,5,6,7,8,9,10,11,13a,14,14a,15,16,16a-hexadecahydrocyclopropa[e]pyrrolo[1,2-a][1,4]diazacyclopentadecine-14a-carboxamide]",8.70 to 10.00
9,"COc1ccc2c(O[C@@H]3C[C@H]4C(=O)N[C@]5(C(=O)NS(=O)(=O)C6CC6)C[C@H]5/C=C\CCCCC[C@H](NC(=O)N5CC(F)(F)C5)C(=O)N4C3)cc(-c3nc(C(C)C)cs3)nc2c1C [Example 35, (2R,6S,13aS,14aR,16aS,Z)-N-(cyclopropylsulfonyl)-6-(3,3-difluoroazetidine-1-carboxamido)-2-(2-(4-isopropylthiazol-2-yl)-7-methoxy-8-methylquinolin-4-yloxy)-5,16-dioxo-1,2,3,5,6,7,8,9,10,11,13a,14,14a,15,16,16a-hexadecahydrocyclopropa[e]pyrrolo[1,2-a][1,4]diazacyclopentadecine-14a-carboxamide]",8.70 to 10.00
10,"COc1ccc2c(O[C@@H]3C[C@H]4C(=O)N[C@]5(C(=O)NS(=O)(=O)C6CC6)C[C@H]5/C=C\CCCCC[C@H](NC(=O)N5CCC(C)(C)C5)C(=O)N4C3)cc(-c3nc(C(C)C)cs3)nc2c1C [Example 36, (2R,6S,13aS,14aR,16aS,Z)-N-(cyclopropylsulfonyl)-6-(3,3-dimethylpyrrolidine-1-carboxamido)-2-(2-(4-isopropylthiazol-2-yl)-7-methoxy-8-methylquinolin-4-yloxy)-5,16-dioxo-1,2,3,5,6,7,8,9,10,11,13a,14,14a,15,16,16a-hexadecahydrocyclopropa[e]pyrrolo[1,2-a][1,4]diazacyclopentadecine-14a-carboxamide]",8.70 to 10.00
